Results published in the supplement of paper PMC10849652.
The other results are listed elsewhere or left out.

Amino acid sequences for entries named in this document (tags omitted). A change or cut given only in a name is not applied to a line headed by its entry.
UniProt O75063: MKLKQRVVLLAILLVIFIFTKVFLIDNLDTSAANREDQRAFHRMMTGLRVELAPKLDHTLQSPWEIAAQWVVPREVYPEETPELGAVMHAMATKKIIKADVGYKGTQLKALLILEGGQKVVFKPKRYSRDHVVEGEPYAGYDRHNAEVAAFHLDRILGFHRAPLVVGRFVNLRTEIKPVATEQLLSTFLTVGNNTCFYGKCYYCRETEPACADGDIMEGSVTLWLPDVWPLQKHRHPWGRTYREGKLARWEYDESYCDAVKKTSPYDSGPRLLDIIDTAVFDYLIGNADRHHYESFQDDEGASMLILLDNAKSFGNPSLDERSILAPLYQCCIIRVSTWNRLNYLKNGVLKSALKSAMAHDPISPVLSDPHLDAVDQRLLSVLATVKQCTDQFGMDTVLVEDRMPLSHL
UniProt Q2NKX8: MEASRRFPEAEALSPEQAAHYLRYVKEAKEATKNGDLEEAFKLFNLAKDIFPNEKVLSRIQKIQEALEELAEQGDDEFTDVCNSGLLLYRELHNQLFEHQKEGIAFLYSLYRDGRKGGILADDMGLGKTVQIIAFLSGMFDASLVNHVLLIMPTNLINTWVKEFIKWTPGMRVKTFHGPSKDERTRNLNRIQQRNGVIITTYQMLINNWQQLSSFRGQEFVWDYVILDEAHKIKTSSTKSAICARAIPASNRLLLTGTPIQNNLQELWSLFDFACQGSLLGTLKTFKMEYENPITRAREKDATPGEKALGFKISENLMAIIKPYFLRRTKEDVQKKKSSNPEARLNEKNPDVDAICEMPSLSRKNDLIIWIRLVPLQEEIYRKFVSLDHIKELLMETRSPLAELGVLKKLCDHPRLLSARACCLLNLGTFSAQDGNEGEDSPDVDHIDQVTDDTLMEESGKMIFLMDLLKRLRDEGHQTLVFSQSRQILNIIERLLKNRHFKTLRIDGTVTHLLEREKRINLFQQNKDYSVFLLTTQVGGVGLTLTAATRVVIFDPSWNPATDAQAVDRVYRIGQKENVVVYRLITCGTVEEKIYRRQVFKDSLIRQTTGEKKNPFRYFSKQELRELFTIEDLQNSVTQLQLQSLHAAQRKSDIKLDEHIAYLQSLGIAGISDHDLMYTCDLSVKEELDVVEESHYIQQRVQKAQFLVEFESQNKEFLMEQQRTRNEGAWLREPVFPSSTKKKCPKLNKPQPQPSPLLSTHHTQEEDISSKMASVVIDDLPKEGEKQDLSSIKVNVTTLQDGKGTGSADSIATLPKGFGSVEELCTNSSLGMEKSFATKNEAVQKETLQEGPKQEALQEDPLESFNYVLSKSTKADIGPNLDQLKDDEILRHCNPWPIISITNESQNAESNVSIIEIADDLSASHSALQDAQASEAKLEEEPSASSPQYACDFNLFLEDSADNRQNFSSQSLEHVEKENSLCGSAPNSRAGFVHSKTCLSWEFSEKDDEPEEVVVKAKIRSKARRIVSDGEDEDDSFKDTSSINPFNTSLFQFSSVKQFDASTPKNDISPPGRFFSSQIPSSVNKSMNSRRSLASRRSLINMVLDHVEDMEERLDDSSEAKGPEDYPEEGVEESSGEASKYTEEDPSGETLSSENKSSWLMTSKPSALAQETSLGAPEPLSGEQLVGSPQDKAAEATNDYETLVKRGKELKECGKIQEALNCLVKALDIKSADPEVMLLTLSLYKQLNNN
UniProt Q6P2I3: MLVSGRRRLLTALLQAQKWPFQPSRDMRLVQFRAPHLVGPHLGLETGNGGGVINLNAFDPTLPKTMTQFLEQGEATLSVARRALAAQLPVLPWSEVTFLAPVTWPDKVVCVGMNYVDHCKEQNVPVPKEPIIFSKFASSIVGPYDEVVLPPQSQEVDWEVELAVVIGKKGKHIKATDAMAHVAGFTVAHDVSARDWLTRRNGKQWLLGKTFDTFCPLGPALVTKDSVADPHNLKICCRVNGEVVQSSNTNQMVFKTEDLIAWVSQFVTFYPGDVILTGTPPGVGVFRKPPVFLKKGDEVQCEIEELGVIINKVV
UniProt Q6P1L5: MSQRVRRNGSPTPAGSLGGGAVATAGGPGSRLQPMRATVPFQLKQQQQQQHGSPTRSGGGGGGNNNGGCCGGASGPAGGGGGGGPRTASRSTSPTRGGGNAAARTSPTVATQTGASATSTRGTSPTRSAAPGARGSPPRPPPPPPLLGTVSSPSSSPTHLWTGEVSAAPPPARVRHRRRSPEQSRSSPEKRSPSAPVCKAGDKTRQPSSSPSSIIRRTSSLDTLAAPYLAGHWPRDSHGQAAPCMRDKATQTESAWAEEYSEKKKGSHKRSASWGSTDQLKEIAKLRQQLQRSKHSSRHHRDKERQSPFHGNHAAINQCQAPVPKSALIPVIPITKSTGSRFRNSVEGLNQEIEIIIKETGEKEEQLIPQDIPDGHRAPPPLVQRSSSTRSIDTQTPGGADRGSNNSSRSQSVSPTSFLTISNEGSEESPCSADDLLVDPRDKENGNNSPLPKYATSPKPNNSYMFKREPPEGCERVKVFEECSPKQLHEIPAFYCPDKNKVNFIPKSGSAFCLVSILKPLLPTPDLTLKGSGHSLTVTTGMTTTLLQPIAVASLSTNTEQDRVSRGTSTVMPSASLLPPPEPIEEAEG
UniProt Q86X53: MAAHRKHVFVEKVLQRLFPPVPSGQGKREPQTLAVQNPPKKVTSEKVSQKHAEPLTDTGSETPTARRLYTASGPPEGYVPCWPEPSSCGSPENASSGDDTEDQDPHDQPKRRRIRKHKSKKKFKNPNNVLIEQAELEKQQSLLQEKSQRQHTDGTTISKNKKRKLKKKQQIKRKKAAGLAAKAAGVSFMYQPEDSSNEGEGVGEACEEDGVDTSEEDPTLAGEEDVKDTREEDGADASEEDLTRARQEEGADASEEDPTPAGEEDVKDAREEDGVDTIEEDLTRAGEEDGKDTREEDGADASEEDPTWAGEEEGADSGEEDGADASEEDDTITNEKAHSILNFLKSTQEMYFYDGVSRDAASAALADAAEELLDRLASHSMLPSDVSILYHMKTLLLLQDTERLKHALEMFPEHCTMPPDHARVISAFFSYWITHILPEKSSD
UniProt Q9HCE0: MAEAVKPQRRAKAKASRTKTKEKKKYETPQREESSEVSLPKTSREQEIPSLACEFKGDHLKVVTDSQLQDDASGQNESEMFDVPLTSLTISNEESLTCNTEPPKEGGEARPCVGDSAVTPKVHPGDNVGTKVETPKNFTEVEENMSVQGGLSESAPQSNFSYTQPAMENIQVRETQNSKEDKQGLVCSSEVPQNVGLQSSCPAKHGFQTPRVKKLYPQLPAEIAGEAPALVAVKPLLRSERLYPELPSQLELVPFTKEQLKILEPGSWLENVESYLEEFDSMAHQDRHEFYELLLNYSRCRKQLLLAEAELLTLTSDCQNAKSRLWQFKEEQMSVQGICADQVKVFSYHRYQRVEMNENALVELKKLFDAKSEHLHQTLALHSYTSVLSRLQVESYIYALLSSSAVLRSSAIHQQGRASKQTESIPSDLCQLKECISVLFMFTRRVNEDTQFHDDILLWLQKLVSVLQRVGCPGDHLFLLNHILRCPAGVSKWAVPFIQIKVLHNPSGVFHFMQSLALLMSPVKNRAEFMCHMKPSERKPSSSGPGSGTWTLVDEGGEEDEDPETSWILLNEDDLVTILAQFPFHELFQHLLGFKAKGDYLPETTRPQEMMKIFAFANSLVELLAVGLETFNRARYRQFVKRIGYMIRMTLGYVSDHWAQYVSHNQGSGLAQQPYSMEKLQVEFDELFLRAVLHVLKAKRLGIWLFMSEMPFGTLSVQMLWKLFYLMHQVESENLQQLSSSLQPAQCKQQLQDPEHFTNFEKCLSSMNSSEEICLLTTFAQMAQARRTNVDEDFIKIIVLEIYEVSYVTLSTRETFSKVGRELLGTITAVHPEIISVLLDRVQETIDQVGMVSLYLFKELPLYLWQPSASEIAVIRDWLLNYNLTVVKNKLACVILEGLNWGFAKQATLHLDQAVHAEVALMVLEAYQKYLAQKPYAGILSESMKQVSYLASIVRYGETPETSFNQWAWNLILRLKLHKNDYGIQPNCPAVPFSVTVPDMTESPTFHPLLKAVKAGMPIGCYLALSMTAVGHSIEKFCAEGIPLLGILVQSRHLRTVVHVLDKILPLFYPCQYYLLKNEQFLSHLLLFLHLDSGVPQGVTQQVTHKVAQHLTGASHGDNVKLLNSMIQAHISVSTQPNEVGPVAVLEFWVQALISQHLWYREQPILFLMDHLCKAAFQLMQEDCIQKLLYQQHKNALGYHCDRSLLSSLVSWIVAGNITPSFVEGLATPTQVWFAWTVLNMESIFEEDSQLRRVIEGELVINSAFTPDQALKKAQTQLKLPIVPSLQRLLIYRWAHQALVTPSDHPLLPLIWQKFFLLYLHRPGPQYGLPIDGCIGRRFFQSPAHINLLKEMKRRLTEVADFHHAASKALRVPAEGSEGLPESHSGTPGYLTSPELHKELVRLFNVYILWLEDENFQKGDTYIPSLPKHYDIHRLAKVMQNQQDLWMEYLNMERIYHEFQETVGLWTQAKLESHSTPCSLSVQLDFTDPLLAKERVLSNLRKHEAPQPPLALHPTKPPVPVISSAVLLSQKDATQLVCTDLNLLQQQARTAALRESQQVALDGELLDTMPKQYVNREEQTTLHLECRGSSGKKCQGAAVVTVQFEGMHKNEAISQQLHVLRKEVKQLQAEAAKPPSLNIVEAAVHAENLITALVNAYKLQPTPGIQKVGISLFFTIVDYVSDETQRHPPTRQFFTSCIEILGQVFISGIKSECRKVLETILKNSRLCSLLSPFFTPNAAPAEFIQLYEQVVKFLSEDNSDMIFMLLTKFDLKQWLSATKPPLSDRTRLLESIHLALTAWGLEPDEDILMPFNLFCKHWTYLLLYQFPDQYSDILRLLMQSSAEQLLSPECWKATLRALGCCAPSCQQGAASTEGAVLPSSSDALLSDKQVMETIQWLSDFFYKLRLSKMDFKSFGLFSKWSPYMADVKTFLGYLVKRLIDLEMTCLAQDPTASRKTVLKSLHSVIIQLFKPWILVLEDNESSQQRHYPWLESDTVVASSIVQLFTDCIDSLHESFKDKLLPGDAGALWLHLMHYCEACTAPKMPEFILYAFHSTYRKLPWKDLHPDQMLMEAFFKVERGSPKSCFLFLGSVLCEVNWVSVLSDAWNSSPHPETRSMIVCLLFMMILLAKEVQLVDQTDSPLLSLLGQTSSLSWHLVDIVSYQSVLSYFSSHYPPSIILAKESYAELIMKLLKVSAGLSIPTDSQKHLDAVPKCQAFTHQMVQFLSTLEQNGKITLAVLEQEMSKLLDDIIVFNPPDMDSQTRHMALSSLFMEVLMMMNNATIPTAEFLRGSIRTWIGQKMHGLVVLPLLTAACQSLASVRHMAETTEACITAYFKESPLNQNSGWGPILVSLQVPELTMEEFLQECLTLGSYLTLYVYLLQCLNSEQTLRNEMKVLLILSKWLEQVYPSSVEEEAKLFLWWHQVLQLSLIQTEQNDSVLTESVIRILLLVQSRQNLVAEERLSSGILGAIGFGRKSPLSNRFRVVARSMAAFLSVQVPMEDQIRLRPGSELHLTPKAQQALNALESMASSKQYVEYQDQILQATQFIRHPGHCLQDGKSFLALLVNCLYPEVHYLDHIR
UniProt O00471: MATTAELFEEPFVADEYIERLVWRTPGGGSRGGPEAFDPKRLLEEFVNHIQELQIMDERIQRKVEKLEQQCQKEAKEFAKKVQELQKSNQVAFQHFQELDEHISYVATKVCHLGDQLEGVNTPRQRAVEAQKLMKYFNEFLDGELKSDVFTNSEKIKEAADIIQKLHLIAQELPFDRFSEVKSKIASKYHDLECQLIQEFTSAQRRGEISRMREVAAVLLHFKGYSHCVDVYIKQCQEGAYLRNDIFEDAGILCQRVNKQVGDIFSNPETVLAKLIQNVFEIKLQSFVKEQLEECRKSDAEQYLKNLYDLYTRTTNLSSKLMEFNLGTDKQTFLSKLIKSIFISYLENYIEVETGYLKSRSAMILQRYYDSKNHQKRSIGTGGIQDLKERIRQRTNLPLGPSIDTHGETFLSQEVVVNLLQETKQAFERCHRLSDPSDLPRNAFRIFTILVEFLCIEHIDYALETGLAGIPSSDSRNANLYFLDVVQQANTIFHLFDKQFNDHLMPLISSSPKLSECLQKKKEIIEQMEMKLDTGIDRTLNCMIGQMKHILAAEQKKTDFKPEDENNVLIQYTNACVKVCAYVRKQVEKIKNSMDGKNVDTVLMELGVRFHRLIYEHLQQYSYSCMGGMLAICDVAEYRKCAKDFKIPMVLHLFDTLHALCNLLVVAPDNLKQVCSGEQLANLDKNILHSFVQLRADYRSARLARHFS
UniProt P38117: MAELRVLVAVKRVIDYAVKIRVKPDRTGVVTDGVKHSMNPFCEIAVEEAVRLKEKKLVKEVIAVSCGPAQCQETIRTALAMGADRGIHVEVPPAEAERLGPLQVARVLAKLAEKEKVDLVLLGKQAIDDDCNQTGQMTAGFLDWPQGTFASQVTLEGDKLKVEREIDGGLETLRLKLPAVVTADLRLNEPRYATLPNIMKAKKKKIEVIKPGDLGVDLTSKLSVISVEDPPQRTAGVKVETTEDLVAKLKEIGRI

Experiments:
Test in all cases: log2 fold change, soluble protein after heating vs DMSO (PISA); higher = thermal stabilisation; K562 cells, 10 uM, 30 min; active = over 0.2 and 3.5 SD of the protein, either way, in both replicates (recomputed)
[1] = compound: COC1=CC=C(C=C1)CN2C=CC3=C2C=C(C=C3)C(=O)NO
Procedure, shortened: (§1)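 For each measurement, 10 μM compound was applied for 30 min to K562 cells at 2×10^6 cells/mL. Aliquots were heated for 3 min across 48°C-58°C, pooled, and extracted in PBS with 0.5% NP-40 at 4°C; the supernatant after 21,000xg for 90 min was soluble protein. This was quantified by TMTpro 16plex LC-MS/MS with channel sums equalised, and thermal stability was reported relative to control samples from duplicates, on a log2 fold-change scale.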

filanesib = compound: CON(C)C(=O)N1N=C(c2cc(F)ccc2F)S[C@@]1(CCCN)c1ccccc1 [filanesib]
Procedure, shortened: as §1

zotarolimus = compound: CO[C@H]1C[C@@H]2CC[C@@H](C)[C@@](O)(O2)C(=O)C(=O)N2CCCC[C@H]2C(=O)O[C@H]([C@H](C)C[C@@H]2CC[C@H](n3cnnn3)[C@H](OC)C2)CC(=O)[C@H](C)/C=C(\C)[C@@H](O)[C@@H](OC)C(=O)[C@H](C)C[C@H](C)/C=C/C=C/C=C/1C [zotarolimus]
Procedure, shortened: as §1

idasanutlin = compound: COc1cc(C(=O)O)ccc1NC(=O)[C@@H]1N[C@@H](CC(C)(C)C)[C@](C#N)(c2ccc(Cl)cc2F)[C@H]1c1cccc(Cl)c1F [idasanutlin]
Procedure, shortened: as §1

alisertib = compound: COc1cc(Nc2ncc3c(n2)-c2ccc(Cl)cc2C(c2c(F)cccc2OC)=NC3)ccc1C(=O)O [alisertib]
Procedure, shortened: as §1

[2] = compound: COc1cc2nc(-c3cc(F)ccc3O)nc(N[C@@H]3CNC[C@H]3C(C)(C)O)c2cc1OC
Procedure, shortened: as §1

gefitinib = compound: COc1cc2ncnc(Nc3ccc(F)c(Cl)c3)c2cc1OCCCN1CCOCC1 [gefitinib]
Procedure, shortened: as §1

[3] = compound: COc1cccc2cc(-c3nc([C@H]4CC[C@H](C(=O)O)CC4)n4ncnc(N)c34)[nH]c12
Procedure, shortened: as §1

lapatinib = compound: CS(=O)(=O)CCNCc1ccc(-c2ccc3ncnc(Nc4ccc(OCc5cccc(F)c5)c(Cl)c4)c3c2)o1 [lapatinib]
Procedure, shortened: as §1

pictilisib = compound: CS(=O)(=O)N1CCN(Cc2cc3nc(-c4cccc5[nH]ncc45)nc(N4CCOCC4)c3s2)CC1 [pictilisib]
Procedure, shortened: as §1

Measured: log2 fold change

ERGIC1 (UniProt Q969X5)
inactive: [1] 0.013 | filanesib -0.008 | zotarolimus -0.032 | idasanutlin -0.016 | alisertib -0.035 | [2] -0.008 | gefitinib 0.015 | [3] 0.048 | lapatinib 0.034 | pictilisib 0.118

ESS2 (UniProt Q96DF8)
inactive: [1] -0.022 | filanesib 0.046 | zotarolimus -0.019 | idasanutlin 0.052 | alisertib -0.125 | [2] -0.037 | gefitinib -0.088 | [3] 0.005 | lapatinib 0.073 | pictilisib -0.083

ESPL1 (UniProt Q14674)
inactive: [1] -0.198 | filanesib 0.043 | zotarolimus -0.106 | idasanutlin -0.171 | alisertib -0.344 | [2] 0.198 | gefitinib -0.048 | [3] 0.378 | lapatinib -0.038 | pictilisib 0.122

ERCC2 (UniProt P18074)
inactive: [1] -0.024 | filanesib 0.018 | zotarolimus 0.068 | idasanutlin 0.063 | alisertib 0.001 | [2] -0.061 | gefitinib -0.03 | [3] -0.021 | lapatinib 0.049 | pictilisib 0.042

ETF1 (UniProt P62495)
inactive: [1] -0.03 | filanesib -0.055 | zotarolimus 0 | idasanutlin -0.072 | alisertib -0.034 | [2] 0.076 | gefitinib 0.008 | [3] 0.027 | lapatinib -0.055 | pictilisib 0.004

FAM20B (UniProt O75063)
inactive: [1] -0.082 | filanesib 0.039 | zotarolimus 0.055 | idasanutlin -0.068 | alisertib -0.018 | [2] 0.006 | gefitinib 0.008 | [3] 0.006 | lapatinib -0.075 | pictilisib -0.026

EPB41L3 (UniProt Q9Y2J2)
inactive: [1] -0.162 | filanesib 0.091 | zotarolimus -0.019 | idasanutlin 0.002 | alisertib -0.042 | [2] -0.024 | gefitinib 0.027 | [3] -0.03 | lapatinib -0.045 | pictilisib 0.06

ETFA (UniProt P13804)
inactive: [1] -0.019 | filanesib -0.091 | zotarolimus 0.016 | idasanutlin -0.069 | alisertib -0.045 | [2] -0.008 | gefitinib 0 | [3] 0.05 | lapatinib -0.005 | pictilisib 0.087

EPN2 (UniProt O95208)
inactive: [1] -0.115 | filanesib 0 | zotarolimus -0.058 | idasanutlin -0.028 | alisertib 0.229 | [2] -0.035 | gefitinib 0.002 | [3] 0.047 | lapatinib 0.04 | pictilisib 0.041

EZR (UniProt P15311)
inactive: [1] -0.03 | filanesib -0.015 | zotarolimus 0.027 | idasanutlin -0.021 | alisertib -0.051 | [2] 0.04 | gefitinib 0 | [3] -0.025 | lapatinib -0.01 | pictilisib -0.032

FAM185A (UniProt Q8N0U4)
inactive: [1] 0.053 | idasanutlin 0.027 | alisertib -0.065 | [2] 0.174 | gefitinib 0.035 | [3] -0.002 | lapatinib -0.118

ERCC6L (UniProt Q2NKX8)
inactive: [1] 0.035 | filanesib 0.032 | zotarolimus 0.038 | idasanutlin 0.094 | [2] -0.17 | gefitinib 0.063 | lapatinib 0.095 | pictilisib 0.057

FAM204A (UniProt Q9H8W3)
inactive: filanesib 0.199 | zotarolimus -0.24 | alisertib 0.951 | [3] -0.075 | pictilisib 0.009

2 entries drawn at random from the list so far, as already listed:
EZR (UniProt P15311)
inactive: [1] -0.03 | filanesib -0.015 | zotarolimus 0.027 | idasanutlin -0.021 | alisertib -0.051 | [2] 0.04 | gefitinib 0 | [3] -0.025 | lapatinib -0.01 | pictilisib -0.032

FAM204A (UniProt Q9H8W3)
inactive: filanesib 0.199 | zotarolimus -0.24 | alisertib 0.951 | [3] -0.075 | pictilisib 0.009

Next part.

ERH (UniProt P84090)
inactive: [1] -0.018 | zotarolimus 0.019 | idasanutlin 0.141 | alisertib 0.18 | [2] -0.284 | gefitinib 0.029 | [3] 0.037 | lapatinib -0.007 | pictilisib 0.025

ERI1 (UniProt Q8IV48)
inactive: [1] -0.084 | zotarolimus 0.071 | alisertib -0.114 | [3] -0.275 | pictilisib -0.06

FAHD2B (UniProt Q6P2I3)
inactive: [1] 0.102 | zotarolimus 0.092 | idasanutlin 0.261 | alisertib -0.033 | [2] -0.122 | gefitinib -0.093 | [3] 0.186 | lapatinib 0.061

FAM117B (UniProt Q6P1L5)
inactive: [1] 0.053 | zotarolimus 0.007 | idasanutlin -0.062 | pictilisib 0.208

ERCC1 isoform 3 (UniProt P07992)
inactive: filanesib 0.187 | zotarolimus 0.147 | [2] 0.268 | lapatinib 0.219

FAM207A (UniProt Q9NSI2)
inactive: [1] -0.034 | filanesib 0.238 | idasanutlin 0.009 | alisertib 0.238 | [2] 0.108 | gefitinib -0.124 | [3] -0.146 | lapatinib 0.041 | pictilisib -0.097

ERICH1 (UniProt Q86X53)
inactive: [1] -0.021 | [2] 0.017 | lapatinib -0.009

EPG5 (UniProt Q9HCE0)
inactive: filanesib -0.272

ERN1 (UniProt O75460)
inactive: [1] -0.141 | filanesib -0.017 | alisertib 0.138 | [2] 0.082 | gefitinib -0.027 | [3] 0.136 | lapatinib -0.084 | pictilisib -0.64

EPB41L2 isoform 4 (UniProt O43491)
inactive: [1] 0.484 | filanesib -0.199 | alisertib 0.139 | [2] 0.186 | gefitinib -0.059 | [3] 0 | lapatinib -0.181

FAM172A (UniProt Q8WUF8)
inactive: filanesib -0.103 | zotarolimus -0.102 | alisertib -0.135 | gefitinib -0.043 | [3] 0.215 | pictilisib -0.024

FAM122B isoform 3 (UniProt Q7Z309)
inactive: [1] -0.173 | filanesib 0.057 | zotarolimus 0.011 | idasanutlin 0.335 | alisertib -0.102 | gefitinib -0.009 | [3] 0.002 | pictilisib -0.102

EXD2 (UniProt Q9NVH0)
inactive: [1] 0.014 | filanesib -0.054 | zotarolimus -0.173 | [2] 0.263 | lapatinib 0.088

EPPK1 (UniProt P58107)
inactive: [1] 0.017 | filanesib 0.413 | zotarolimus 0.135 | alisertib 1.32 | [2] -0.044 | gefitinib -0.093 | [3] -0.167 | lapatinib 0 | pictilisib 0

FAM193B (UniProt Q96PV7)
inactive: [1] -0.179 | filanesib 0.379 | zotarolimus -0.077 | idasanutlin 0.311 | [2] 0.112 | lapatinib -0.066

ESRRB isoform 1 (UniProt O95718)
inactive: [1] -0.169 | zotarolimus 0.193

EXTL2 (UniProt Q9UBQ6)
inactive: [1] 0.051 | filanesib -0.023 | zotarolimus -0.147 | idasanutlin -0.121 | alisertib -0.144 | [2] -0.094 | gefitinib 0.075 | [3] 0.123 | lapatinib 0.05 | pictilisib -0.111

ERI3 (UniProt H0Y4B0)
inactive: filanesib 0.012

EXOSC1 (UniProt Q9Y3B2)
inactive: [1] -0.05 | filanesib 0.122 | zotarolimus 0.053 | idasanutlin -0.028 | alisertib 0.017 | [2] -0.031 | gefitinib 0.027 | [3] -0.02 | lapatinib 0.016 | pictilisib -0.058

EXOSC10 (UniProt Q01780)
inactive: [1] 0.593 | filanesib 0.136 | zotarolimus 0.115 | idasanutlin 0.01 | alisertib -0.002 | [2] 0.387 | [3] 0.1 | lapatinib -0.221 | pictilisib 0.227

FAM160A2 isoform 2 (UniProt Q8N612)
inactive: [1] -0.082 | zotarolimus 0.067 | alisertib 0.031 | gefitinib 0.158 | [3] 0.103 | pictilisib -0.056

EXOC5 (UniProt O00471)
inactive: [1] -0.005 | filanesib -0.051 | zotarolimus 0.089 | idasanutlin -0.079 | alisertib -0.01 | [2] 0.123 | gefitinib -0.024 | [3] -0.015 | lapatinib -0.028 | pictilisib -0.055

F10 (UniProt P00742)
inactive: [1] -0.06 | filanesib 0.157 | alisertib -0.095 | gefitinib -0.156 | [3] 0.157

EPS15 (UniProt P42566)
inactive: [1] -0.016 | filanesib -0.048 | zotarolimus 0.05 | idasanutlin -0.032 | alisertib -0.026 | [2] 0.041 | gefitinib -0.019 | [3] -0.1 | lapatinib -0.017 | pictilisib 0.001

EZH2 isoform 2 (UniProt Q15910)
inactive: [1] -0.105 | filanesib -0.113 | zotarolimus -0.073 | idasanutlin 0.073 | alisertib -0.209 | [2] -0.129 | [3] -0.144 | lapatinib 0.112

ETFB (UniProt P38117)
inactive: [1] -0.029 | filanesib -0.065 | zotarolimus 0.008 | idasanutlin 0.006 | alisertib -0.068 | [2] 0.022 | gefitinib 0.011 | [3] 0.023 | lapatinib -0.036 | pictilisib 0.037
